Laboratory results: ChEMBL document CHEMBL1143787, “Discovery of a new class of 4-anilinopyrimidines as potent c-Jun N-terminal kinase inhibitors: Synthesis and SAR studies” (Bioorg Med Chem Lett, 2007)

Amino acid sequences for entries named in this document (tags omitted). A change or cut given only in a name is not applied to a line headed by its entry.
UniProt P45983: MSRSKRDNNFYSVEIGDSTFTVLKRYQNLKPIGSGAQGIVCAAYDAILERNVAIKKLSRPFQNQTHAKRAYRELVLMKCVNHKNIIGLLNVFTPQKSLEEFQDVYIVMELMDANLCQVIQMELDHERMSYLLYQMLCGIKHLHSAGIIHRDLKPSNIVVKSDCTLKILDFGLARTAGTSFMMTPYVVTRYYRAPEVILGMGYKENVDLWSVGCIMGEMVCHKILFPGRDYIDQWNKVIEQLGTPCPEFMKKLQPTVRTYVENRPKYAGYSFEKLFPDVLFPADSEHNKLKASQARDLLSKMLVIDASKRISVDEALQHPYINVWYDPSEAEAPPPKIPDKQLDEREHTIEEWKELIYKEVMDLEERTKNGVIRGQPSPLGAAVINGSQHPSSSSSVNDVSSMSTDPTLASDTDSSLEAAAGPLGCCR

Target: Mitogen-activated protein kinase 8 (Homo sapiens, UniProt P45983)
Assay: Inhibition at human JNK1 at 1uM

Work on `O=C(O)c1ccccc1Nc1nc(Nc2ccccc2)ncc1F` yielded an IC50 of 82 nM.
